The results in this text go back to PubChem BioAssay AID2685 (National Center for Advancing Translational Sciences (NCATS), 2010).

The assay can be described thus: qHTS Assay for Lipid Storage Modulators in Drosophila S3 Cells.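 On cell number change: cells counted by Cell Tracker Red CMTPX staining in the red channel.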 To be noted: BODIPY lipid droplet fluorescence, 18-24 h; for cell number change: measured here: cell count max response, cells fed with added oleic acid. The procedure, abridged: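 Drosophila S3 cells got compounds at several concentrations plus oleic acid (400 uM solution). Laser-scanning cytometry with 488 nm excitation read lipid droplets at 500-530 nm and cells at 575-640 nm. Percent activity was relative to 20 uM Triacsin C.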

Setting [1] is: measured here: lipid fluorescence (Fed channel) AC50, cells fed with added oleic acid.
Setting [2] is: measured here: cell number channel AC50, cells fed with added oleic acid.

This is one part of the list. The main result of the screen is listed elsewhere. These columns were measured beside it and carry no call. Compounds called inactive in the main read-out are mostly missing here. Potencies come from curve fits of mixed quality, noted in brackets.

As for `O=C(c1ccc(-c2cccc([N+](=O)[O-])c2)o1)N1CCN(c2ccc([N+](=O)[O-])cc2)CC1`, the AC50 under setting [1] was 3.66 µM [rising, partial curve]. Take `CCCCCSc1nc(O)cc(=O)[nH]1`: the cell number change is -16.1%. Further, the AC50 under setting [2] was 1.64 µM [falling, partial curve, poor fit]. With `O=C(C1CCN(S(=O)(=O)c2ccc(Cl)cc2)CC1)N1CCN(c2ccccn2)CC1`, the cell number change was 2.96%. Further, the AC50 under setting [2] was 4.11 µM [rising, single point]. For the same compound, the concentration at half-maximal activity (AC50) under setting [1] was 6.51 µM [rising, single point]. In the case of `CC1Cc2ccccc2N1S(=O)(=O)c1cccc(C(=O)N2Cc3ccccc3CC2C(N)=O)c1` (centres undefined), the cell number change was -11.7%. Also, under setting [1], the AC50 is 29.1 µM [falling, single point]. Regarding `COc1ccc(OC)c(C(=O)c2ccc(C(=O)N3CCCCC3)cc2)c1`, the cell number change is -2.4%.

Regarding `Cc1sc2nc(Cc3ccccc3)[nH]c(=O)c2c1-c1ccccc1`, the cell number change worked out at 22.2%. In addition, the half-maximal activity concentration (AC50) under setting [1] was 4.61 µM [rising, partial curve]. Take `CCC(C(=O)Nc1cc(C)nn1-c1nc(C)cc(C)n1)c1ccccc1` (centres undefined): the cell number change is -5.61%. For the compound `CCN(C(=O)c1ccc(C(C)(C)C)cc1)c1nnc(Cn2nnc3ccccc32)s1`, the cell number change is -53.4%. Further, the AC50 under setting [2] was 16.4 µM [falling, partial curve, poor fit]. In addition, under setting [1], the AC50 is 29.1 µM [falling, partial curve, poor fit]. On to `CCN(CC)c1cnn(C/C(=N\OC)c2ccc(Cl)cc2)c(=O)c1Br`, for which the AC50 under setting [2] is 1.84 µM [rising, partial curve]. For `CCN(CCCC(=O)c1ccc(F)cc1)CCc1ccccc1`, the cell number change was -1.65%. Under setting [1], the half-maximal activity concentration (AC50) was 16.4 µM [rising, partial curve]. Regarding `O=C(NNc1nc(-c2ccc(F)cc2)cs1)c1ccccc1`, the cell number change was -15.7%.

As to `Cc1cccc(-c2cc3nc(C)cc(N4CC(C)CC(C)C4)n3n2)c1` (centres undefined), the cell number change is -10.2%. For the same compound, the AC50 under setting [1] was 3.26 µM [falling, partial curve]. In the case of `O=C(CCCC1=NS(=O)(=O)c2ccccc2N1)OCc1ccc(Cl)cc1`, the half-maximal activity concentration (AC50) under setting [2] is 7.31 µM [rising, partial curve, poor fit] and the AC50 under setting [1] is 4.11 µM [rising, single point]. Consider `CCn1c(=S)sc2c(=O)n(CC(=O)Nc3cccc(OC)c3)c(C)nc21`, for which the cell number change was -2.75%. Also, under setting [1], the AC50 was 0.82 µM [falling, single point]. With `CCOc1ccc(-c2nnc(-c3ccco3)o2)cc1`, the cell number change stood at 88.9%. Also, the AC50 under setting [2] was 18.4 µM [rising, partial curve, poor fit]. As to `NC(=O)c1ccsc1NC(=O)CN1C(=O)NC2(CCCCC2)C1=O`, the cell number change worked out at 37.5%. Moreover, the AC50 under setting [2] was 29.1 µM [rising, single point]. For the same compound, under setting [1], the AC50 was 29.1 µM [rising, single point]. Regarding `Cc1nc(NC(=O)c2ccc(Br)s2)sc1C(=O)N(C)C`, the cell number change worked out at 67.3%. Moreover, the AC50 under setting [2] was 20.6 µM [rising, partial curve, poor fit]. Under setting [1], the concentration at half-maximal activity (AC50) was 16.4 µM [rising, partial curve].

On to `Nc1ccc(-c2cn3cccnc3n2)cc1`, for which the cell number change was -16.3%. For the same compound, the AC50 under setting [2] is 0.631 µM [falling, single point]. Moreover, the AC50 under setting [1] is 0.708 µM [falling, full curve, poor fit]. For the compound `COc1ccc(-c2cc(C)no2)cc1S(=O)(=O)N(C)Cc1ccco1`, the AC50 under setting [1] is 0.058 µM [rising, full curve, poor fit].

Turning to `COc1ccc(NC(=O)Nc2nccs2)cc1`, the cell number change is -14.8%. The AC50 under setting [1] is 2.06 µM [rising, partial curve]. Regarding `Cc1ccc(NNC(=O)c2snnc2C)cc1Cl`, the AC50 under setting [1] was 2.31 µM [rising, single point]. For the compound `CNC(=O)c1nc(C)n(-c2cc(Cl)ccc2Cl)n1`, the cell number change was 2.97%. Take `CCOc1cc(CNc2ccc(N3CCCC3)cc2)cc(Cl)c1OC`: the cell number change turned out to be 17.4%. Besides, the AC50 under setting [1] is 3.66 µM [rising, single point].

Take `O=C(O)c1ccc(-c2ccccc2Cl)o1`: the cell number change was -30.8%. Also, the AC50 under setting [2] was 0.651 µM [falling, full curve, poor fit]. Besides, under setting [1], the AC50 was 0.651 µM [falling, single point].

Regarding `CS(=O)(=O)N(CC(=O)N/N=C/c1cccs1)c1cccc(Cl)c1Cl`, the cell number change was -20.2%. In addition, under setting [2], the AC50 is 0.00461 µM [falling, full curve, poor fit].

Turning to `COc1ccc(C(=O)/C(=C\c2sccc2C)c2nc3ccccc3o2)cc1`, the cell number change was 28.4%. For the same compound, the AC50 under setting [1] is 14.6 µM [rising, partial curve].

Regarding `O=C(COc1ccc(Cl)cc1Cl)N1CCN(c2ccccn2)CC1`, the cell number change came out at 32.5%. For the compound `COc1ccc(Cl)cc1CN1C(=O)NC2(CCCCCC2)C1=O`, the cell number change worked out at 6.76%. Besides, the AC50 under setting [1] is 0.58 µM [falling, single point]. `CSc1ccccc1C(=O)NCc1ccccc1C`: the cell number change is -38.2%. Also, the AC50 under setting [2] was 23.1 µM [falling, partial curve]. Under setting [1], the AC50 is 20.6 µM [falling, partial curve, poor fit]. Take `COC(=O)Cn1c(N2CCCC2)nc2c1c(=O)n(C)c(=O)n2C`: the cell number change worked out at 4.05%. Besides, the AC50 under setting [1] was 4.11 µM [rising, single point]. For `O=C1/C(=C\c2ccco2)SC(=S)N1c1ccccc1`, the cell number change is -4.61%. The AC50 under setting [1] is 0.00517 µM [falling, full curve, poor fit].

On to `Cc1ccc(S(=O)(=O)N(C)C)cc1-n1c(SCC(=O)Nc2ccc(F)c(F)c2F)nc2ccccc2c1=O`, for which the cell number change turned out to be 41.5%. Moreover, under setting [2], the AC50 was 29.1 µM [rising, single point]. Moreover, under setting [1], the concentration at half-maximal activity (AC50) was 0.326 µM [falling, partial curve, poor fit]. In the case of `CC1CCc2c(sc(NC(=O)C(=O)NCc3ccco3)c2C#N)C1` (centres undefined), the AC50 reads like this: under setting [2], 2.59 µM [rising, partial curve]; under setting [1], 3.66 µM [rising, single point]. Take `N#Cc1ccccc1COC(=O)CCC(=O)c1cccs1`: the cell number change worked out at 13%. For the same compound, the AC50 under setting [1] is 0.00461 µM [rising, full curve, poor fit]. Regarding `CC(C)(C)NC(=O)C1CC(=O)OC12CCOC(C)(C)C2` (centres undefined), the cell number change is -5.24%. In addition, the AC50 under setting [2] is 3.26 µM [falling, partial curve]. As to `COc1ccc(Br)cc1/C=C/C(=O)NC(=S)Nc1ccc(CN2CCOCC2)cc1`, the cell number change worked out at 24.2%. Further, the AC50 under setting [1] was 6.51 µM [rising, partial curve]. For `CCCCCCn1c(SCCC)nc2c1c(=O)[nH]c(=O)n2C`, the cell number change is -30.3%. Further, the AC50 under setting [2] was 5.17 µM [falling, full curve, poor fit]. As to `N#Cc1sc(C(N)=O)c(-c2ccccc2)c1-c1ccccc1`, the cell number change was found to be 27.9%. As for `CS(=O)(=O)c1ccc(C(=O)OCC(=O)NC23CC4CC(CC(C4)C2)C3)cc1[N+](=O)[O-]`, the cell number change was -11.6%. Besides, the AC50 under setting [1] is 29.1 µM [falling, single point]. As to `CCOC(=O)/C(C#N)=C/c1cccn1-c1ccc(Cl)cc1`, the cell number change turned out to be 3.31%. For the same compound, the concentration at half-maximal activity (AC50) under setting [1] was 0.0461 µM [rising, full curve, poor fit].

Consider `CCOc1ccc(CN(C)C(=O)c2ccc(=O)[nH]c2)cc1`, for which the cell number change came to 3.63%. Further, the AC50 under setting [1] was 7.31 µM [falling, partial curve, poor fit]. With `CC(c1nnc(SCC(=O)N(C)C2CCS(=O)(=O)C2)n1-c1ccccc1)N(C)C` (centres undefined), the cell number change is -2.52%. In addition, the AC50 under setting [1] is 2.91 µM [rising, full curve].

Regarding `Cc1nc2ccccc2c(=O)n1/N=C/c1ccc(N(C)C)cc1`, the cell number change was -21.4%. Besides, the AC50 under setting [1] was 0.517 µM [rising, full curve].

With `C=CCNc1nc(C(=O)OCC(=O)c2ccc(OC)cc2OC)cs1`, the concentration at half-maximal activity (AC50) under setting [2] is 0.103 µM [rising, full curve, poor fit].

As for `O=C(NCCCN1CCOCC1)C(=O)N/N=C/c1ccccc1Cl`, the cell number change is -1.17%. As for `N#Cc1ccc(CC(C(=O)O)N2Cc3ccccc3C2=O)cc1` (centres undefined), the cell number change was -21.5%. Moreover, the AC50 under setting [1] is 9.2 µM [falling, partial curve, poor fit]. In the case of `COc1ccc(-c2cc(C(=O)N3CCCCC3)c3ccccc3n2)cc1OC`, the cell number change was determined as 5.6%. In addition, the AC50 under setting [1] is 0.013 µM [rising, full curve, poor fit]. In the case of `COc1ccc(C(CC(=O)NCc2ccccc2)Sc2n[nH]c(-c3ccccc3)n2)cc1` (centres undefined), the cell number change stood at 22%. Under setting [1], the AC50 was 6.51 µM [falling, partial curve]. With `COC(=O)c1c(C)cc(OC(C)=O)c(C)c1OC(C)=O`, the cell number change was determined as 1.23%. In addition, under setting [2], the AC50 was 7.31 µM [falling, single point]. `O=c1oc2ccc3ccccc3c2cc1-c1nnc(-c2ccccc2)o1`: the AC50 under setting [2] was 5.8 µM [rising, single point]. As for `Cc1nn(-c2ccccc2)c(Cl)c1/C=N/Nc1nc2ccccc2[nH]1`, the cell number change is -53.3%. The AC50 under setting [2] was 8.2 µM [falling, partial curve]. The AC50 under setting [1] was 4.61 µM [falling, full curve].

With `Cc1ccc2cc(C3C(C#N)=C(N)Oc4c3ccc3cccnc43)c(=O)[nH]c2c1` (centres undefined), the cell number change was -23.6%. Moreover, the half-maximal activity concentration (AC50) under setting [1] is 29.1 µM [falling, single point].

As to `CCc1ccccc1NC(=O)c1cc(C2CC2)on1`, the cell number change was -32.3%. Take `COc1cc2cc(C)c(SCC(=O)N3CCOCC3)nc2cc1OC`: the cell number change is -1.61%.

For `O=C(O)c1ccc(C(=O)c2ccc3c(c2)C(=O)N(Cc2ccco2)C3=O)cc1`, the cell number change is -22.8%. Also, the AC50 under setting [2] was 1.46 µM [falling, full curve, poor fit]. Further, under setting [1], the AC50 is 3.26 µM [falling, full curve].

With `CC(OC(=O)c1cc(S(=O)(=O)N(C)c2ccccc2)ccc1Cl)C(=O)Nc1ccc2c(c1)OCCO2` (centres undefined), the cell number change stood at 10.8%. Besides, under setting [1], the AC50 was 6.51 µM [rising, single point]. Take `O=C(CCN1C(=O)/C(=C/c2ccc3c(c2)OCO3)SC1=S)Nc1ccccc1`: the cell number change is -23.7%. The AC50 under setting [1] was 0.92 µM [rising, full curve, poor fit].

Regarding `CCN(C(=O)COC(=O)c1cc([N+](=O)[O-])ccc1N1CCOCC1)C1CCCCC1`, the AC50 under setting [2] is 0.517 µM [rising, partial curve]. As for `COc1ccccc1NC(=O)Nc1cnccn1`, the cell number change was 22%. Besides, the AC50 under setting [2] was 0.103 µM [rising, full curve, poor fit].

On to `O=C(COc1ccccc1)Nc1ccc(NC(=O)c2ccco2)cc1`, for which the cell number change was determined as 10.6%. Moreover, the AC50 under setting [1] was 0.0517 µM [rising, full curve, poor fit].

By AC50 is commonly meant the concentration at which the activity in the assay is half-maximal. Lower therefore signals activity at low concentration.
